Assay results: US20220088155A1, “SUBCONJUNCTIVAL CHEMOTHERAPEUTIC DELIVERY BY FIBRIN SEALANT IN THE TREATMENT OF RETINOBLASTOMA” (BAXTER INTERNATIONALINC., priority 2019, published 2022)

System: fibrin clot formation in whole blood and fibrin sealant
Test: Fibrin polymerization (A405 nm) and thromboelastography of chemotherapies in whole blood/plasma and fibrin sealant
Conditions: for Fibrin polymerization and viscoelastic clot properties: both whole blood and sealant formulations

| SMILES | Fibrin formation (polymerization) time | Maximal clot amplitude or modulus (overall clot strength) | Fibrin polymerization and viscoelastic clot properties |
| --- | --- | --- | --- |
| CC[C@]1(O)C[C@H]2CN(CCc3c([nH]c4ccccc34)[C@@](C(=O)OC)(c3cc4c(cc3OC)N(C=O)[C@H]3[C@@](O)(C(=O)OC)[C@H](OC(C)=O)[C@]5(CC)C=CCN6CC[C@]43[C@@H]65)C2)C1 [Vincristine] | impeded; also recorded: increases | did not affect; also recorded: without affecting | – |
| COc1cc([C@@H]2c3cc4c(cc3[C@@H](O[C@@H]3O[C@@H]5CO[C@@H](C)O[C@H]5[C@H](O)[C@H]3O)[C@H]3COC(=O)[C@H]23)OCO4)cc(OC)c1O [Etoposide] | – | – | unaffected; also recorded: not appreciably affected |
| N.N.O=C([O-])C1(C(=O)[O-])CCC1.[Pt+2] [Carboplatin] | – | – | unaffected; also recorded: not appreciably affected |

Entries after “also recorded” stand apart in the source; their conditions may differ.
